Laboratory results taken from patent US11633401B2, “Combination therapy with MEK inhibitor and CDK4/6 inhibitor to treat pancreatic cancer” (priority 2018, dated 2023).
At least one structure is not confirmed: it was looked up by name or label, or the drawing left a doubt.

Experiments:
[1] = tested on: KPC^mut cell line transplant PDAC tumors; test: Flow cytometry of MHC Class I and II in tumors; assay type: in vivo, mice; conditions: 10-day treatment
[2] = tested on: KPC^mut cell line transplant PDAC tumors; test: Flow cytometry of tumor immune cells; conditions: 10-day treatment
[3] = tested on: KPC organoid transplant and KPC GEMM PDAC tumors; test: Tumor vasculature staining (CD31, αSMA, PDGFRβ); assay type: in vivo, mice; conditions: 2 weeks; both PDAC models
[4] = tested on: pancreatic cancer cell lines (PANC-1, PU-8988T, MiaPaca2); test: RNA-seq of SASP gene expression; assay type: cell-based, human; conditions: 8 day treatment; trametinib 25 nM and/or palbociclib 500 nM
[5] = tested on: human KRAS-mutant pancreas cancer cells; test: Clonogenic drug withdrawal assay; assay type: cell-based; conditions: for irreversible arrest after drug withdrawal: 8 day pre-treatment, re-plated in absence of drugs, trametinib 25 nM and/or palbociclib 500 nM; for type of growth arrest: human KRAS mutant PDAC cell lines

SMILES | MHC-I^+ tumor cells and MHC-I surface level [1] | T cell numbers [2] | blood vessel density [3] | proximity of vessels to tumor cells [3] | Induction of SASP genes [4] | irreversible arrest after drug withdrawal [5] | type of growth arrest [5]
CC(=O)c1c(C)c2cnc(Nc3ccc(N4CCNCC4)cn3)nc2n(C2CCCC2)c1=O [palbociclib] | but not single agent | not achieved with T or P treatment alone | not T or P alone | not T or P alone | not in cells treated with trametinib or palbociclib alone | No irreversible arrest | reversible, quiescent growth arrest
CC(=O)Nc1cccc(-n2c(=O)n(C3CC3)c(=O)c3c(Nc4ccc(I)cc4F)n(C)c(=O)c(C)c32)c1 [trametinib] | but not single agent | not achieved with T or P treatment alone | not T or P alone | not T or P alone | not in cells treated with trametinib or palbociclib alone | No irreversible arrest | reversible, quiescent growth arrest
